Among the data in patent publication US20090202520A1 are binding values, retold here.

These are yes or no findings as the source states them, for the method shown.

This assay deals with keyhole limpet hemocyanin (KLH). Kind of assay: SPR (Biacore X100), CRP flowed over KLH immobilised on a CM5 flow cell. (In SPR one partner is held on a chip, and binding of the other changes the refractive index at the surface.)

B1: C-reactive protein (CRP) (ligand, human, UniProt P02741 19-224, looked up)
chain: QTDMSRKAFVFPKESDTSYVSLKAPLTKPLKAFTVCLHFYTELSSTRGYSIFSYATKRQDNEILIFWSKDIGYSFTVGGSEILFEVPEVTVAPVHICTSWESASGIVEFWVDGKPRVRKSLKKGYTVGAEASIILGQEQDSFGGNFEGSQSLVGDIGNVNMWDFVLSPDEINTIYLGGPFSPNVLNWRALKYEVQGEVFTKPQLWP
Take B1: the binding result is recorded as “no binding”.
